From US4271152A (Akzo N.V., priority 1979, dated 1981) come the findings set out here.

*: point of attachment. Cbz = O=C(OCc1ccccc1)*; Boc = CC(C)(C)OC(=O)*; OtBu = CC(C)(C)O*

A short description of the first data set: general procedure: solution-phase peptide synthesis; DCCI/HOBt; azide method (IAN); ONp active esters. The conditions noted are these: coupling step, acetate.
In turn, H-GFMTSEKSQTPLVTL-OH displayed a step yield of 78%.
Substance Cbz-TSE(OtBu)K(Boc)-OMe showed a step yield of 61.9%.
Same read-out and setting: for H-SQTPLVTL-OtBu the value was 72%; for Boc-GFMTSE(OtBu)K(Boc)-OMe, 61%.
Substance H-LVTL-OtBu returned a step yield of 77%.

Still in this data set, the particulars now being: late stage modification step, acetate.
As for Cbz-SQTP-OH, the step yield is 90%.
Still for that read-out and setting: for H-SQTPLVTL-OtBu the value was 86%; for H-TSE(OtBu)K(Boc)-OMe, 99%; for Boc-GFMTSE(OtBu)K(Boc)-OH, 80%.
